Data source: PubChem BioAssay AID1259424 (University of Nebraska Medical Center, 2018)
The whole screen tested about 14,000 reagents; below is a random part of them. 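Higher correlation or smaller distance means closer resemblance to KSR1 loss; control wells, including KSR1 knockdowns, recur on many plates.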 Reagents against one gene are numbered here. Some reagents were tested in more than one well and are listed for each. Not all columns of the deposit are shown. No sequences are given here. Not given: the time to read-out.

- Aim: 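Rank knockdowns across the genome by resemblance to the KSR1 depletion profile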 (primary screen)
- Cells: human HCT116 colon cancer cells
- Reagents: siRNA pool against human genes, 50 nM
- Detection: 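Log2 levels of six mRNAs (branched-DNA multiplex), adjusted by two reference genes and the non-targeting median, then scored against the average KSR1 knockdown pattern as Pearson r and euclidean distance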
- Direction: mean correlation with KSR1 profile: higher = expression change more like KSR1 knockdown; mean distance from KSR1 profile: higher = expression change less like KSR1 knockdown

Silencing of TNFAIP3 (TNF alpha induced protein 3) came out at: mean correlation with KSR1 profile -0.32; mean distance from KSR1 profile 2.12.
ZSCAN20 (zinc finger and SCAN domain containing 20) showed mean correlation with KSR1 profile -0.201; mean distance from KSR1 profile 3.58.
PKD2 (polycystin 2, transient receptor potential cation channel) scored mean correlation with KSR1 profile 0.734; mean distance from KSR1 profile 1.19.
Against XPR1 (xenotropic and polytropic retrovirus receptor 1), the values are mean correlation with KSR1 profile 0.332; mean distance from KSR1 profile 2.08.
With knock-down of GUK1 (guanylate kinase 1), the record shows mean correlation with KSR1 profile 0.424; mean distance from KSR1 profile 1.34.
For DLL3 (delta like canonical Notch ligand 3), the entry reads mean correlation with KSR1 profile 0.481; mean distance from KSR1 profile 1.56.
Against TROAP (trophinin associated protein) the deposit lists mean correlation with KSR1 profile 0.423; mean distance from KSR1 profile 5.08.
LRRC3 (leucine rich repeat containing 3) #1 scored mean correlation with KSR1 profile 0.27; mean distance from KSR1 profile 2.63.
LRRC3 (leucine rich repeat containing 3) #2 showed mean correlation with KSR1 profile -0.882; mean distance from KSR1 profile 5.16.
ATE1 (arginyltransferase 1) gave mean correlation with KSR1 profile -0.164; mean distance from KSR1 profile 2.97.
With knock-down of RABGAP1 (RAB GTPase activating protein 1), the screen gave mean correlation with KSR1 profile -0.286; mean distance from KSR1 profile 1.47.
Knock-down of RABGAP1 (RAB GTPase activating protein 1) gave: mean correlation with KSR1 profile 0.418; mean distance from KSR1 profile 1.52.
THOC3 (THO complex subunit 3) showed mean correlation with KSR1 profile 0.171; mean distance from KSR1 profile 1.84.
Silencing of ACAP1 (ArfGAP with coiled-coil, ankyrin repeat and PH domains 1) gave: mean correlation with KSR1 profile 0.407; mean distance from KSR1 profile 3.49.
Against VRK2 (VRK serine/threonine kinase 2) the deposit lists mean correlation with KSR1 profile 0.11; mean distance from KSR1 profile 2.01.
With knock-down of MME (membrane metalloendopeptidase), the record shows mean correlation with KSR1 profile -0.381; mean distance from KSR1 profile 2.22.
Silencing of ADAMTSL1 (ADAMTS like 1) resulted in: mean correlation with KSR1 profile 0.68; mean distance from KSR1 profile 0.685.
CDC37 (cell division cycle 37, HSP90 cochaperone) scored mean correlation with KSR1 profile 0.0826; mean distance from KSR1 profile 1.98.
CAP1 (cyclase associated actin cytoskeleton regulatory protein 1) gave mean correlation with KSR1 profile -0.195; mean distance from KSR1 profile 2.98.
NUP107 (nucleoporin 107) showed mean correlation with KSR1 profile -0.0844; mean distance from KSR1 profile 1.28.
With knock-down of TAF10 (TATA-box binding protein associated factor 10), the screen gave mean correlation with KSR1 profile -0.871; mean distance from KSR1 profile 2.14.
After knock-down of SCG5 (secretogranin V), the record shows mean correlation with KSR1 profile 0.378; mean distance from KSR1 profile 2.06.
Depletion of SNX9 (sorting nexin 9) gave: mean correlation with KSR1 profile 0.571; mean distance from KSR1 profile 2.27.
Depletion of TRIM56 (tripartite motif containing 56) gave: mean correlation with KSR1 profile 0.632; mean distance from KSR1 profile 1.14.
With knock-down of PAQR3 (progestin and adipoQ receptor family member 3), the record shows mean correlation with KSR1 profile 0.489; mean distance from KSR1 profile 2.33.
SELENOT (selenoprotein T) scored mean correlation with KSR1 profile -0.627; mean distance from KSR1 profile 4.69.
Silencing of CYP46A1 (cytochrome P450 family 46 subfamily A member 1) gave: mean correlation with KSR1 profile -0.405; mean distance from KSR1 profile 2.61.
For PSG9 (pregnancy specific beta-1-glycoprotein 9), the entry reads mean correlation with KSR1 profile 0.722; mean distance from KSR1 profile 1.67.
Depletion of PYROXD2 (pyridine nucleotide-disulphide oxidoreductase domain 2) came out at: mean correlation with KSR1 profile 0.186; mean distance from KSR1 profile 2.9.
LTBP3 (latent transforming growth factor beta binding protein 3) gave mean correlation with KSR1 profile 0.194; mean distance from KSR1 profile 1.01.
With knock-down of MRPL47 (mitochondrial ribosomal protein L47) the results were mean correlation with KSR1 profile -0.399; mean distance from KSR1 profile 2.48.
STIP1 (stress induced phosphoprotein 1) scored mean correlation with KSR1 profile -0.421; mean distance from KSR1 profile 1.81.
Knock-down of ARL4A (ARF like GTPase 4A) came out at: mean correlation with KSR1 profile -0.156; mean distance from KSR1 profile 2.
IL10RA (interleukin 10 receptor subunit alpha) scored mean correlation with KSR1 profile -0.036; mean distance from KSR1 profile 3.61.
HLF (HLF transcription factor, PAR bZIP family member) showed mean correlation with KSR1 profile -0.589; mean distance from KSR1 profile 2.97.
Depletion of CLASP2 (cytoplasmic linker associated protein 2) gave: mean correlation with KSR1 profile 0.123; mean distance from KSR1 profile 1.14.
